Data published in PMC7462549.
These are yes or no findings as the source states them, for the method shown. Binding seen in cells or lysates may run through a third protein. Where a sequence is shown, tags or fusion partners need not be part of it.

By UniProt entry, the sequences of proteins in these tests, tags left out. Where a name states a change or a piece, a line headed by the entry shows the natural chain unless it says otherwise.
UniProt P04114: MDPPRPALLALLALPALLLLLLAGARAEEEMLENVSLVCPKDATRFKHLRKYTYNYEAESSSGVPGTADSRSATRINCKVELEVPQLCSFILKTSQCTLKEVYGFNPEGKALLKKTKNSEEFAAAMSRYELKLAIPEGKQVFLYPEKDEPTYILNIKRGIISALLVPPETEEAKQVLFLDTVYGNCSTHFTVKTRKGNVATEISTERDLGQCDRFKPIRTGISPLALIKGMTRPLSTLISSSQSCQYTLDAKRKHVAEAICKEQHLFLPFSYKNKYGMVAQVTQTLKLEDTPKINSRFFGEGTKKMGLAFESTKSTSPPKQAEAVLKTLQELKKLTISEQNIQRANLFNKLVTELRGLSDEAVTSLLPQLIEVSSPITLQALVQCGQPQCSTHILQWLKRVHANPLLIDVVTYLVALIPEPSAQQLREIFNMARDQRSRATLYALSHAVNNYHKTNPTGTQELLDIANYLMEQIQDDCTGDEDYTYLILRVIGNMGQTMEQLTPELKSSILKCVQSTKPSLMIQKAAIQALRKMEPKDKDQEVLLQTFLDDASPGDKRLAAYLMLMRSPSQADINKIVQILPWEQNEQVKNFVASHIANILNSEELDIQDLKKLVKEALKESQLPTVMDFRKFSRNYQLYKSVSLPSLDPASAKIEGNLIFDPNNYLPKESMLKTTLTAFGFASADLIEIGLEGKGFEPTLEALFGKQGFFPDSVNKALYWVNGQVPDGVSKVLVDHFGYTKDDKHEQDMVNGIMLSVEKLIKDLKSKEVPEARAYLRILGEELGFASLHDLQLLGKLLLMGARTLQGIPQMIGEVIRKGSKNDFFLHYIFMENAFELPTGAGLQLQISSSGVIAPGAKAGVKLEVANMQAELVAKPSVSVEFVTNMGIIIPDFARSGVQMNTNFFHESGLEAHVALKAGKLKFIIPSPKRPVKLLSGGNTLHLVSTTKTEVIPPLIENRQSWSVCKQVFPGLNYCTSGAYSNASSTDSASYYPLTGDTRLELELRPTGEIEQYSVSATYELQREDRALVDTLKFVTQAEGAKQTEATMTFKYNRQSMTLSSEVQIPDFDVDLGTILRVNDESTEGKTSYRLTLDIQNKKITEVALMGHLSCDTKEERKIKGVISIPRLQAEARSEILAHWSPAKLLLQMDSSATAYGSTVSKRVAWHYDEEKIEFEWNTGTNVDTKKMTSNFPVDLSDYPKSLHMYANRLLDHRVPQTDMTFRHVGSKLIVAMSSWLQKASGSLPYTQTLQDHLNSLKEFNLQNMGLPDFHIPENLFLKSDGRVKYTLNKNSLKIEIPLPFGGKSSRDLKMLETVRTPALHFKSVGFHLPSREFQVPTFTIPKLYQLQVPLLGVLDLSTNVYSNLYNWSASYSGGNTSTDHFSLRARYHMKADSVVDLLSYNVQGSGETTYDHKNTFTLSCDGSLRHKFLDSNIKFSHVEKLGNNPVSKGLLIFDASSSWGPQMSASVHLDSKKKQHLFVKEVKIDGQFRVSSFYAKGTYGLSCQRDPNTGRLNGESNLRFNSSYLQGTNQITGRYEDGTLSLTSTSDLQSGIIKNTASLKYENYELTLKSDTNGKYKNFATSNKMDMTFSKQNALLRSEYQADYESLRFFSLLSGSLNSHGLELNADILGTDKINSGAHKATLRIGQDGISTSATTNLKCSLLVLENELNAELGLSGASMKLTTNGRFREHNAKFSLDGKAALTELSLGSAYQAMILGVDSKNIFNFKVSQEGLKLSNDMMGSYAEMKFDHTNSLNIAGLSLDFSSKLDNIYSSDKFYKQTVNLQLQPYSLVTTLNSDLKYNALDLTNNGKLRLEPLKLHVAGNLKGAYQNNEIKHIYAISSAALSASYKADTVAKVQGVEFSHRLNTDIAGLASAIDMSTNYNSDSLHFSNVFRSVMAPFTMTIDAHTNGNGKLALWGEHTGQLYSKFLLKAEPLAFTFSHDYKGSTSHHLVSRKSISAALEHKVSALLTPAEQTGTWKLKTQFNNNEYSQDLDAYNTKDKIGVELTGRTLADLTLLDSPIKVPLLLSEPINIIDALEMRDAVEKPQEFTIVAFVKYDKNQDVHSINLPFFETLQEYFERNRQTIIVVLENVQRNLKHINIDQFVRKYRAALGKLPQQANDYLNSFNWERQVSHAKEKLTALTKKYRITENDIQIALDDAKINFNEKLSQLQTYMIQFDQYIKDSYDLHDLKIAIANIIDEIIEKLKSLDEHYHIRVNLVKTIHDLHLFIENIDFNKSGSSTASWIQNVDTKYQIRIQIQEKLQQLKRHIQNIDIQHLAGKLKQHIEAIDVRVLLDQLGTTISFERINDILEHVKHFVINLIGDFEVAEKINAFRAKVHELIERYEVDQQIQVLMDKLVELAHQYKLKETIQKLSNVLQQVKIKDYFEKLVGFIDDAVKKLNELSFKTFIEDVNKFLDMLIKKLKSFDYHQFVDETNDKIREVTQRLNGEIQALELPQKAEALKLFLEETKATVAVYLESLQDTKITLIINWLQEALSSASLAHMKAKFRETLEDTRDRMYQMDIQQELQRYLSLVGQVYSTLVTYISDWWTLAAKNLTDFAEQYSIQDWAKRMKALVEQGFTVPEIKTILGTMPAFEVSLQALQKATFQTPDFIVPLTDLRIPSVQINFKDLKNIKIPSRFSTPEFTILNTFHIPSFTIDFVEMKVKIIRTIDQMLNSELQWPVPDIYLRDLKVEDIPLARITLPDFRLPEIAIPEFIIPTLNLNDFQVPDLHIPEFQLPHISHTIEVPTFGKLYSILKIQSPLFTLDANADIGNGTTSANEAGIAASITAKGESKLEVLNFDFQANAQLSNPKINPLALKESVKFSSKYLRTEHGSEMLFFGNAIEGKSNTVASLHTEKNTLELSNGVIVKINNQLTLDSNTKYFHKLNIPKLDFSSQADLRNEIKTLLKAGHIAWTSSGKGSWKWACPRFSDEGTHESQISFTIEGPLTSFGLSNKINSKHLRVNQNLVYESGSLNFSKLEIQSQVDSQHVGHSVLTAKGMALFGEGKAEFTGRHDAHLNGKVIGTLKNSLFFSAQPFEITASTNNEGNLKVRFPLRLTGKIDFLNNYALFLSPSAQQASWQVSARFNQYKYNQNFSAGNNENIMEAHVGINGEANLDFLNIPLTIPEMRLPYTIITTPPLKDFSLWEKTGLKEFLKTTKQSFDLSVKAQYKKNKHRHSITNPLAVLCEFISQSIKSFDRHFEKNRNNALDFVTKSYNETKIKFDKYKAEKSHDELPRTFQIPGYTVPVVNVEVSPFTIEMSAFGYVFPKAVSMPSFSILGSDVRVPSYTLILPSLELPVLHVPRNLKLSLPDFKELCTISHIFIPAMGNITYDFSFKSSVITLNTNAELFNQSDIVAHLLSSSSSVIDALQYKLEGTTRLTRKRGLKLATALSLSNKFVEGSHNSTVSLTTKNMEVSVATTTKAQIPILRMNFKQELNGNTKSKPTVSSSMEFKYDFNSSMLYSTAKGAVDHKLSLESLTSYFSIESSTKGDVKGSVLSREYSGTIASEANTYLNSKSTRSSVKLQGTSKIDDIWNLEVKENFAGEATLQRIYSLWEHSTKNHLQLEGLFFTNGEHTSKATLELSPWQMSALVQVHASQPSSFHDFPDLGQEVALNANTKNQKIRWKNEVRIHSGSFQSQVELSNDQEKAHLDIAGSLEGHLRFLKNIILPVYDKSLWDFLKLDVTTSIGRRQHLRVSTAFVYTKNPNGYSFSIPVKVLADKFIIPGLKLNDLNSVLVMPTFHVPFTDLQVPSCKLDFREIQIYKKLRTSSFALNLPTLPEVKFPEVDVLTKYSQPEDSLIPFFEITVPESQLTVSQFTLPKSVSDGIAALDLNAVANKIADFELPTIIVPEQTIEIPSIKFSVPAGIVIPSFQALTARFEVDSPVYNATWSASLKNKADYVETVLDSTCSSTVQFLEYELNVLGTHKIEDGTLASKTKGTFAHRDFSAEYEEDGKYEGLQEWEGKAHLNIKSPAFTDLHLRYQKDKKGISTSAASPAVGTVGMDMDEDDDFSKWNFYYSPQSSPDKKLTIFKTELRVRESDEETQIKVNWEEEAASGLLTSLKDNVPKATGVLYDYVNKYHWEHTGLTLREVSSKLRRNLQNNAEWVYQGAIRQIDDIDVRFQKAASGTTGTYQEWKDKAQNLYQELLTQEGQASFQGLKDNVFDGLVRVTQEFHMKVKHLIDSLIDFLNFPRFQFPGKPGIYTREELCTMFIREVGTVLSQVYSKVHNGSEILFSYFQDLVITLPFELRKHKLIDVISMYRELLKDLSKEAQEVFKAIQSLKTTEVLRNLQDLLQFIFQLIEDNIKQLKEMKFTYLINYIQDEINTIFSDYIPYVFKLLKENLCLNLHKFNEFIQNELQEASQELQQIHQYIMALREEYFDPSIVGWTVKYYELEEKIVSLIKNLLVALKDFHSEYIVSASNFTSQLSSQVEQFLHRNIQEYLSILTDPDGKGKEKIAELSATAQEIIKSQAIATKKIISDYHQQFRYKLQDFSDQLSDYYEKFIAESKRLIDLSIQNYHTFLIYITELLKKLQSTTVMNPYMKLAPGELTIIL

Molecular target: FLAG-tagged APOB48 (UniProt P04114)
Assay: co-IP; Huh7 cells co-transfected, harvested after 48 h; lysates in PBS, 0.1% NP-40 incubated with anti-FLAG or anti-MYC beads at 4°C for 2 h; immunoblotting

B1: Myc-tagged ERLIN1 (protein, UniProt O75477 1-348)
chain: MNMTQARVLVAAVVGLVAVLLYASIHKIEEGHLAVYYRGGALLTSPSGPGYHIMLPFITTFRSVQTTLQTDEVKNVPCGTSGGVMIYIDRIEVVNMLAPYAVFDIVRNYTADYDKTLIFNKIHHELNQFCSAHTLQEVYIELFDQIDENLKQALQKDLNLMAPGLTIQAVRVTKPKIPEAIRRNFELMEAEKTKLLIAAQKQKVVEKEAETERKKAVIEAEKIAQVAKIRFQQKVMEKETEKRISEIEDAAFLAREKAKADAEYYAAHKYATSNKHKLTPEYLELKKYQAIASNSKIYFGSNIPNMFVDSSCALKYSDIRTGRESSLPSKEALEPSGENVIQNKESTG
B1 was tested, and the binding was “no binding”.

B2: Myc-tagged ERLIN2 (protein, UniProt O94905 1-339)
chain: MAQLGAVVAVASSFFCASLFSAVHKIEEGHIGVYYRGGALLTSTSGPGFHLMLPFITSYKSVQTTLQTDEVKNVPCGTSGGVMIYFDRIEVVNFLVPNAVYDIVKNYTADYDKALIFNKIHHELNQFCSVHTLQEVYIELFDQIDENLKLALQQDLTSMAPGLVIQAVRVTKPNIPEAIRRNYELMESEKTKLLIAAQKQKVVEKEAETERKKALIEAEKVAQVAEITYGQKVMEKETEKKISEIEDAAFLAREKAKADAECYTAMKIAEANKLKLTPEYLQLMKYKAIASNSKIYFGKDIPNMFMDSAGSVSKQFEGLADKLSFGLEDEPLETATKEN
For B2, the binding was “no binding”.
